Results deposited as PubChem BioAssay AID504764 (Drosophila RNAi Screening Center, 2011)
Purpose: 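Genome-wide screen for regulators of Notch-driven gene expression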 (primary screen). Cells: Drosophila Kc167 cells. Reagent: long dsRNA against Drosophila genes. Timing: about 5 days (4 days dsRNA, then 24 h after transfection). Challenge: transfection of constitutively active membrane-tethered Notch lacking the extracellular domain, read 24 h later. Measured: 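Firefly luciferase from an E(spl)m3 reporter with active Notch, plus control-promoter and uninduced reporter wells for normalisation; unnormalised counts, duplicate wells a and b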. Reading the numbers: induced reporter light, run 1, well a and induced reporter light, run 1, well b: higher = more light from the Notch target reporter with active Notch; control promoter light, run 1, well a and control promoter light, run 1, well b: higher = more light from the viral control promoter (cell number, transfection, viability); uninduced reporter light, run 1, well a: higher = more light from the Notch target reporter without active Notch. Active means: 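Wells with low control signal or poorly matching duplicates excluded; duplicates averaged; per source plate, z beyond ±2 for induced/control log2 ratio or beyond ±1.8 for induced/uninduced marks a hit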. Calls: active = modifier hit (raised or lowered Notch signal); inactive = not a hit.
In all, the deposit lists about 22,000 reagents; below is an unselected part of those with a known target gene and a result. In the full data, 403 (1.9%) are marked active. 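Unnormalised raw counts per well; ratio z-scores behind the hit calls and whether each hit raises or lowers signal are not deposited.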 Unmarked entries are inactive. Not given: the amount of reagent.

mTTF (GeneID 34837) [DRSC01909] showed induced reporter light, run 1, well a = 1.05e5; induced reporter light, run 1, well b = 1.22e5; control promoter light, run 1, well a = 1.24e5; control promoter light, run 1, well b = 1.27e5; uninduced reporter light, run 1, well a = 9940.
SdhC (GeneID 41340) [DRSC16088] showed induced reporter light, run 1, well a = 78765; induced reporter light, run 1, well b = 1.14e5; control promoter light, run 1, well a = 96615; control promoter light, run 1, well b = 1.02e5; uninduced reporter light, run 1, well a = 6390.
After knock-down of gsb-n (GeneID 38004) [DRSC04021] the results were induced reporter light, run 1, well a = 1.85e5; induced reporter light, run 1, well b = 2.26e5; control promoter light, run 1, well a = 3.02e5; control promoter light, run 1, well b = 3.66e5; uninduced reporter light, run 1, well a = 11725.
Knock-down of gsb-n (GeneID 38004) [DRSC04693] resulted in: induced reporter light, run 1, well a = 2.66e5; induced reporter light, run 1, well b = 2.38e5; control promoter light, run 1, well a = 2.09e5; control promoter light, run 1, well b = 1.94e5; uninduced reporter light, run 1, well a = 16475.
Against CG7394 (GeneID 39294) [DRSC10835] the deposit lists induced reporter light, run 1, well a = 98725; induced reporter light, run 1, well b = 80650; control promoter light, run 1, well a = 1.32e5; control promoter light, run 1, well b = 1.12e5; uninduced reporter light, run 1, well a = 5675.
For az2 (GeneID 35682) [DRSC07580], the entry reads induced reporter light, run 1, well a = 1.91e5; induced reporter light, run 1, well b = 1.94e5; control promoter light, run 1, well a = 1.79e5; control promoter light, run 1, well b = 2.00e5; uninduced reporter light, run 1, well a = 15820.
With knock-down of TrpRS-m (GeneID 39989) [DRSC10848], the screen gave induced reporter light, run 1, well a = 99440; induced reporter light, run 1, well b = 1.29e5; control promoter light, run 1, well a = 77530; control promoter light, run 1, well b = 91390; uninduced reporter light, run 1, well a = 9100.
After knock-down of CG15082 (GeneID 37173) [DRSC06513], the screen gave induced reporter light, run 1, well a = 35555; induced reporter light, run 1, well b = 33190; control promoter light, run 1, well a = 57920; control promoter light, run 1, well b = 33470; uninduced reporter light, run 1, well a = 4340.
After knock-down of her (GeneID 34992) [DRSC03543] the results were induced reporter light, run 1, well a = 2.91e5; induced reporter light, run 1, well b = 2.36e5; control promoter light, run 1, well a = 2.16e5; control promoter light, run 1, well b = 2.13e5; uninduced reporter light, run 1, well a = 17605.
For CG6398 (GeneID 32761) [DRSC19992], the entry reads induced reporter light, run 1, well a = 1.14e5; induced reporter light, run 1, well b = 1.05e5; control promoter light, run 1, well a = 91610; control promoter light, run 1, well b = 63470; uninduced reporter light, run 1, well a = 9645.
Npc2c (GeneID 41233) [DRSC15523] gave induced reporter light, run 1, well a = 65815; induced reporter light, run 1, well b = 68335; control promoter light, run 1, well a = 52720; control promoter light, run 1, well b = 55940; uninduced reporter light, run 1, well a = 2980.
CG7164 (GeneID 34061) [DRSC03018] showed induced reporter light, run 1, well a = 1.26e5; induced reporter light, run 1, well b = 2.15e5; control promoter light, run 1, well a = 1.34e5; control promoter light, run 1, well b = 1.57e5; uninduced reporter light, run 1, well a = 22010.
